For part of these data: For at least one compound, name, drawing or mass did not settle the structure. Some entries share one result that the patent states for a list of compounds.
Tests used:
c-Jun = experiment: Western blot analysis of c-Jun phosphorylation in human cancer cells; type: cell-based; conditions: DU145 and PC-3 cells; SP600125 0 to 10 μM, 30 min pretreatment, 12.5 μg/ml leptin 15 minutes
Method: Eighty-percent confluent prostate cancer cells were starved in the serum-free medium for 24 hours and then treated by 12.5 μg/ml leptin or 10 μg/ml anisomycin for the indicated periods. In some experiments, cells were pretreated with SP600125 prior to cytokine stimulation as described below. Cells were washed twice with cold PBS, harvested by a scraper and centrifuged for 10 minutes at 700×g at 4° C. The pellet was homogenized in the cell lysis buffer (20 mM HEPES, pH 7.9, 300 mM NaCl, 1 mM EDTA, 15% glycerol, 0.5% NP-40, 1 mM Na3VO4, 1 μg/ml leupeptin, 5 μg/ml aprotinin, 1 μg/ml pepstatin and 1 mM PMSF) and incubated at 4° C. with gentle rocking for 30 minutes. This homogenate was centrifuged for 5 minutes at 15,000×g, and the supernatant was saved as a cell lysate and stored at −80° C. until use.
Cell lysates containing 100 μg of protein were electrophoresed on 10% SDS-polyacrylamide gels and electrotransferred to PVDF membranes. Following the supplier's instructions, the membranes were washed, blocked and hybridized with anti-phospho-c-Jun (Ser-63 or Ser-73) polyclonal antibody that specifically recognizes a phosphorylated form of c-Jun. Bands were visualized using a Lumiglo reagent (Cell Signaling Technology Inc.). The membranes were then stripped and re-hybridized with anti-c-Jun antibody that detects both phosphorylated and unphosphorylated forms to normalize sample variations. […]

[1] = tested on: androgen-independent prostate cancer cells; experiment: Apoptosis induction; type: cell-based
DU145 cells = experiment: [3H] thymidine incorporation assay; type: cell-based, human
Method: (§1) DU145 (1.5×10^5/well), PC-3 (1.0×10^5/well) and LNCaP-FGC (2.0×10^5/well) cells were seeded into 24-well plates 24 hours before serum-starvation. Cells were deprived of serum for 48 hours, followed by incubation with leptin at indicated concentrations or 100 ng/ml IL-6 for 20 hours. In some experiments, cells were pretreated with SP600125 prior to cytokine stimulation as described below. Cells in each well were pulsed with 1 μCi of [^3H] thymidine (Amersham Pharmacia Biotech Inc., Piscataway, N.J., USA) during the final 5 hours, washed once with PBS, fixed with cold 5% trichloroacetic acid, solubilized with 0.25 M NaOH, and counted in scintillant. Each experiment was performed in quadruplicate, and the values are reported as mean±SD.
(§2) SP600125 was dissolved in DMSO to make a stock solution. Eighty-percent confluent prostate cancer cells were serum-starved for 24 hours and pretreated with SP600125 at indicated concentrations for 30 minutes, followed by leptin treatment (12.5 μg/ml): 15 minutes for Western blot analysis or 20 hours for thymidine incorporation assays. DMSO-treated cells were employed as controls.

PC-3 cells = experiment: [3H] thymidine incorporation assay; type: cell-based, human
Method: as §1, §2

AKT = experiment: Leptin and/or IGF-induced AKT phosphorylation; type: cell-based
[2] = tested on: androgen-independent prostate cancer cells; experiment: Leptin- and/or IGF-stimulated cell proliferation; type: cell-based
STAT3 = experiment: Electromobility shift assay (EMSA) of STAT3 DNA binding; type: cell-based, human; conditions: DU145 cells; 1.0 μg/ml
Method: Seventy-percent confluent cells were deprived of serum for 24 hours, followed by treatment with 1 μg/ml f- or g-adiponectin or 10 μg/ml anisomycin for indicated periods. After being rinsed with cold phosphate-buffered saline, cells were harvested using a scraper and collected by centrifugation at 700×g for 10 minutes at 4° C. The cell pellets were then homogenized in cell lysis buffer (20 mM HEPES, pH 7.9, 300 mM NaCl, 1 mM Na3VO4, 1 μg/ml leupeptin, 5 μg/ml aprotinin, 1 μg/ml pepstatin, and 1 mM phenylmethylsulfonyl fluoride) and rocked gently for 30 minutes at 4° C. The homogenates were centrifuged at 15,000×g for 5 minutes at 4° C., and the supernatants were saved as cell lysates and stored at −80° C. until use.
The EMSA was performed as described previously (Y. Iwamoto, et al., J. Biol. Chem. 273:18198-18204, 1998). Cell lysates containing 10 μg of protein were subjected to the assay with ^32P-end-labeled, double-stranded oligonucleotide M67-SIE (forward: 5′[…]-3′ and reverse: 5′-[…]-3′) as a probe. The supershift assay was carried out to confirm the STAT3-DNA complex using anti-STAT3 antibody.

## Oc1c2ccccc2c2c3c(cccc13)N=N2 [SP600125, reference compound]
c-Jun
  effect on the leptin stimulation of c-Jun phosphorylation on Ser-63 and Ser-73: suppressed
[1]
  apoptosis: induces apoptosis
DU145 cells; DU145, without leptin
  effect on basal levels of cell proliferation: inhibited the basal levels of cell proliferation
DU145 cells; DU145, SP600125 0 to 10 μM, 30 min pretreatment, then 12.5 μg/ml leptin 20 hours
  effect on leptin-stimulated cell proliferation: inhibited leptin-stimulated cell proliferation
PC-3 cells; PC-3, without leptin
  effect on basal levels of cell proliferation: inhibited the basal levels of cell proliferation
PC-3 cells; PC-3, SP600125 0 to 10 μM, 30 min pretreatment, then 12.5 μg/ml leptin 20 hours
  effect on leptin-stimulated cell proliferation: inhibited leptin-stimulated cell proliferation

## O=c1cc(N2CCOCC2)oc2c(-c3ccccc3)cccc12 [LY294002]
AKT
  leptin and/or IGF-induced AKT phosphorylation (activation): suppresses
[2]
  leptin- and/or IGF-stimulated, androgen-independent prostate cancer cell proliferation: suppresses

B1: f-adiponectin: Recombinant human full-length (non-proteolytic) adiponectin, about 30-kDa polypeptide; lot mainly HMW form (protein, UniProt Q15848 1-244, looked up)
chain: MLLLGAVLLLLALPGHDQETTTQGPGVLLPLPKGACTGWMAGIPGHPGHNGAPGRDGRDGTPGEKGEKGDPGLIGPKGDIGETGVPGAEGPRGFPGIQGRKGEPGEGAYVYRSAFSVGLETYVTIPNMPIRFTKIFYNQQNHYDGSTGKFHCNIPGLYYFAYHITVYMKDVKVSLFKKDKAMLFTYDQYQENNVDQASGSVLLHLEVGDQVWLQVYGEGERNGLYADNDNDSTFTGFLLYHDTN
modifications: full-length
notes: Recombinant human full-length (non-proteolytic) adiponectin, about 30-kDa polypeptide; lot mainly HMW form
STAT3
  time until STAT3 activation returned to the original level: ≤ 60 min

From US20060040861A1, “Method of treating, preventing, and diagnosing prostate cancer” (priority 2004, published 2006)
